# From PubChem BioAssay AID445 (National Center for Advancing Translational Sciences (NCATS), 2006)
# This is one part of the list. Further columns of the screen follow, without active or inactive calls. The list favours compounds with an active or inconclusive main result. Words in brackets tell the shape of the fitted curve; partial curves, single points and poor fits give uncertain potencies.
# Assay: IkB Signaling
# Details: ABC-DLBCL IkBa-CBG/CBR dual luciferase ratio (green luciferase fused to IkBa over red control in OCI-Ly3 lymphoma cells), 4 h
# Method in brief: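 In this assay, an IκBα–CBG68 fusion accumulates when IKK-driven degradation is blocked; native CBR normalizes for cell number. OCI-Ly3 cells were treated 4 h with compound and doxycycline, then green and red light read after Chroma-Glo addition.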
# [1] = measured here: control luc red channel unless noted
# [2] = measured here: IkB-luc green channel
# [3] = measured here: control luc red channel
compound,measurement,setting,value
Cc1ccccc1NC(=O)Cn1nc(-c2ccccc2)nc(Cc2ccccc2)c1=O,AC50,[1],"25.1 µM [falling, single point]"
COc1ccc(CNC(=O)CSc2nnc(C)c3c(C)n(-c4ccccc4)nc23)c(OC)c1,AC50,[1],"5.01 µM [falling, partial curve]"
COc1ccccc1NS(=O)(=O)c1ccc(OC)c(OC)c1,AC50,[1],"10 µM [falling, partial curve]"
CC(C)(C)C(=O)CSc1nc2ccsc2c(=O)n1Cc1ccccc1Cl,AC50,[1],"3.98 µM [rising, partial curve]"
Cc1c(C(=O)NCC2COc3ccccc3O2)oc2ccc(S(=O)(=O)N3CCOCC3)cc12 (centres undefined),AC50,[1],"10 µM [falling, partial curve]"
COc1cccc(CSc2nc3n(n2)C(c2ccc(C(=O)O)cc2)C(C(=O)Nc2ccccc2)=C(C)N3)c1 (centres undefined),AC50,[1],"0.158 µM [falling, full curve, poor fit]"
Cc1ccc(Cn2nc(C)c(NC(=O)c3noc4c3CCCCC4)c2C)cc1,AC50,[1],"15.8 µM [falling, partial curve]"
CSc1ccccc1-c1nnc(NC(=O)c2ccc3c(c2)OCCO3)o1,AC50,[1],"20 µM [falling, partial curve]"
CC(COc1ccccc1)N(CCCl)Cc1ccccc1 (centres undefined),AC50,[1],"39.8 µM [falling, partial curve, poor fit]"
Cc1ccc(-n2nc(C(=O)N3CCN(c4ccccc4F)CC3)c(=O)n(C)c2=O)cc1,AC50,[1],"31.6 µM [falling, single point]"
Nc1ncn([C@@H]2O[C@H](CO)[C@@H](O)[C@H]2O)c(=O)n1,AC50,[1],"12.6 µM [falling, partial curve]"
CCCCCc1ccc(-c2ccc(Br)cc2)nc1,AC50,[1],"10 µM [falling, partial curve]"
Clc1ccccc1CSc1nnc(-c2ccccn2)n1Cc1ccco1,AC50,[1],"10 µM [falling, partial curve]"
Cc1cc(Br)ccc1NC(=O)CSc1c2c(nc3ccccc13)CCC2,AC50,[1],"12.6 µM [falling, partial curve]"
CCOc1ccc(CNC(=O)CCc2c(C)nn(-c3ccc(N4CCCCC4)nn3)c2C)cc1,AC50,[1],"31.6 µM [falling, single point]"
CCCCC(CC)CNC(=O)Cc1ccc(-n2c(=O)[nH]c3ccccc3c2=O)cc1 (centres undefined),AC50,[1],"15.8 µM [falling, single point]"
CCCCC12CN3CC(C)(CN(C1)C3c1c[nH]c3ccccc13)C2=O (centres undefined),AC50,[1],"25.1 µM [falling, single point]"
Cc1cc(C)n(-c2ccc(C(=O)Nc3ccccn3)cc2)n1,AC50,[1],"15.8 µM [falling, partial curve]"
CCCn1c(CCC(=O)O)ccc1-c1cccs1,AC50,[2],"25.1 µM [rising, single point]"
same,AC50,[3],"39.8 µM [falling, single point]"
COc1ccc(N2CCN(S(=O)(=O)c3ccc(-c4coc(C)n4)cc3)CC2)cc1,AC50,[1],"3.16 µM [falling, partial curve, poor fit]"
O=C1CC(N2CCC(O)(c3ccc(Cl)cc3)CC2)C(=O)N1Cc1ccc(N2CCCC2=O)cc1 (centres undefined),AC50,[1],"12.6 µM [falling, partial curve]"
Cc1c(CCNC(=O)c2ccc(C(C)(C)C)cc2)sc2nc(-c3ccc(F)cc3)nn12,AC50,[1],"3.98 µM [falling, partial curve]"
CCc1cc2c(cc3c(=O)n(CCCC(=O)NCc4cccc(Br)c4)ncn32)s1,AC50,[1],"6.31 µM [falling, partial curve]"
Cc1cc(Nc2ccc(F)cc2F)nc(-n2nc(C)cc2C)n1,AC50,[1],"39.8 µM [falling, single point]"
CC1CCCN(c2nc3c(c(=O)[nH]c(=O)n3C)n2CCCc2ccccc2)C1 (centres undefined),AC50,[1],"15.8 µM [falling, partial curve]"
COc1ccc2cc(CCNC(=O)c3ccc4c(c3)OCO4)c(=O)[nH]c2c1,AC50,[1],"15.8 µM [falling, partial curve]"
CNS(=O)(=O)c1cn(CC(=O)N2CCN(c3ccc(C(C)=O)cc3)CC2)cc1S(=O)(=O)NC,AC50,[1],"39.8 µM [rising, partial curve, poor fit]"
CC(=O)N1CCN(c2ccccc2NC(=O)COc2cc(C)ccc2C(C)C)CC1,AC50,[1],"12.6 µM [falling, partial curve]"
O=C(CSc1nc(=O)n(CCN2CCOCC2)c2c1CCC2)Nc1ccc(Cl)c(Cl)c1,AC50,[1],"3.16 µM [falling, partial curve, poor fit]"
Cc1ccc2nc(SCc3nc(-c4ccc(Cl)cc4)no3)[nH]c2c1,AC50,[1],"31.6 µM [falling, single point]"
CC(=O)Nc1ccccc1-c1nc2ccccc2n(CC(=O)Nc2cccc(C)c2C)c1=O,AC50,[1],"39.8 µM [falling, single point]"
CCOC(=O)c1cc(-c2ccccc2)n(CCC(=O)Nc2ccccc2CC)c1C,AC50,[1],"39.8 µM [rising, partial curve]"
Cc1cc(C)cc(N2C(=O)CSC23C(=O)N(Cc2c(F)cccc2Cl)c2ccccc23)c1 (centres undefined),AC50,[1],"7.94 µM [falling, partial curve]"
Cc1cccc2nc(-c3ccccn3)c(Nc3ccc(F)cc3)n12,AC50,[1],"31.6 µM [falling, partial curve]"
CCCCOc1ccc(CSc2ncn[nH]2)cc1,AC50,[1],"12.6 µM [falling, partial curve]"
CC(=O)c1sc(NC(=O)c2ccccc2F)nc1C,AC50,[1],"12.6 µM [falling, partial curve]"
CC(C)(C)OC(=O)N1CCC(c2c(C(=O)NCCc3ccsc3)cnn2-c2ccc(F)cc2F)CC1,AC50,[1],"20 µM [falling, partial curve]"
CCOC(=O)c1c(Nc2ccc(OCC)cc2)nnc(-c2ccccc2)c1-c1ccccc1,AC50,[1],"10 µM [falling, partial curve]"
CC(C)c1cnc2c(c1SCC(=O)c1ccc(Cl)cc1)c(=O)n(C)c(=O)n2C,AC50,[1],"31.6 µM [falling, partial curve]"
COc1ccc(Cl)cc1NC(=O)CN1CCC(n2nnc3cc(F)ccc32)CC1,AC50,[2],"25.1 µM [rising, partial curve]"
same,AC50,[3],"25.1 µM [rising, partial curve]"
Cc1cc(-c2ccccc2)nc2cc(C(=O)Nc3ccc(Cl)c(Cl)c3)nn12,AC50,[1],"3.16 µM [falling, full curve, poor fit]"
CCOc1ccc(NCc2cccn2-c2nnc(N3CCC(C(=O)NCCc4ccc(OCC)c(OCC)c4)CC3)s2)cc1,AC50,[1],"39.8 µM [falling, single point]"
COc1ccc(C(=O)N2CC=C(c3ccccc3)CC2)cc1S(=O)(=O)N1CCOCC1,AC50,[1],"25.1 µM [falling, single point]"
CCOC(=O)c1[nH]c2c(c1C)C(=O)CC(c1ccco1)C2 (centres undefined),AC50,[2],"0.794 µM [rising, full curve]"
same,AC50,[3],"0.398 µM [rising, full curve]"
COc1ccccc1-c1noc(CCC(=O)Nc2cccc(C(F)(F)F)c2)n1,AC50,[1],"25.1 µM [falling, partial curve]"
Cc1cccc(NC(=O)C(=O)NCC(c2cccnc2)N2CCN(Cc3ccccc3)CC2)c1 (centres undefined),AC50,[1],"39.8 µM [falling, single point]"
COc1ccc(OC)c(NC(=O)C(Cc2ccccc2)NS(=O)(=O)c2ccc3c(c2)CCC(=O)N3)c1 (centres undefined),AC50,[1],"31.6 µM [falling, single point]"
CCn1cc2nc(SCc3c(F)cccc3Cl)n(CCc3ccccc3)c(=O)c2n1,AC50,[1],"25.1 µM [falling, partial curve]"
CCN(CC)S(=O)(=O)c1ccc2c(c1)N(CC(=O)Nc1cccc(C(C)=O)c1)C(=O)CO2,AC50,[1],"10 µM [falling, partial curve]"
O=C(Nc1ccc(Br)cc1)Nc1nc2c(s1)CCCCCC2,AC50,[1],"0.0501 µM [rising, full curve, poor fit]"
COc1ccc(Cl)cc1S(=O)(=O)Nc1ccc2c(c1)n(C)c(=O)n2C,AC50,[1],"20 µM [rising, partial curve] [measured here: IkB-luc green channel]"
Cc1cccc(N2CCN(C(=O)c3ccc(N4CCCC4=O)cc3)CC2C)c1 (centres undefined),AC50,[1],"12.6 µM [falling, partial curve]"
C#CCOc1c(Br)cc(C2C(C(=O)OC)=C(C)NC3=C2C(=O)c2ccccc23)cc1OCC (centres undefined),AC50,[1],"10 µM [falling, partial curve]"
COc1cc(OC)c(NC(=O)c2nn(C)c3c2COc2ccccc2-3)cc1Cl,AC50,[1],"39.8 µM [falling, single point]"
CN1C(=O)CSc2ccc(NC(=O)N3CCN(c4ccccn4)CC3)cc21,AC50,[1],"25.1 µM [falling, partial curve]"
Cc1cccc(C(=O)Nc2nnc(S(=O)(=O)N3CCOCC3)s2)c1,AC50,[1],"31.6 µM [falling, partial curve, poor fit]"
Cc1ccc(-c2nnc(Nc3cccc(Br)c3)c3ccccc23)cc1S(=O)(=O)N1CCN(C)CC1,AC50,[1],"7.94 µM [falling, full curve]"
O=C(CSc1c2c(nc3ccc(Cl)cc13)CCCC2)N1CCN(c2ccc(Cl)cc2)CC1,AC50,[1],"3.16 µM [falling, partial curve]"
CCOc1ccc(OC(=O)c2sc3ncn(Cc4cccc(F)c4)c(=O)c3c2C)cc1,AC50,[1],"39.8 µM [falling, single point]"
CSc1ccc(CCNS(=O)(=O)c2cc(-c3cc(C)no3)ccc2C)cc1,AC50,[1],"25.1 µM [falling, partial curve]"
Cc1[nH]c2ccccc2c1C1(O)C(=O)N(Cc2ccccc2)c2ccc(Br)cc21 (centres undefined),AC50,[1],"39.8 µM [falling, single point]"

# A portion of the results above:
compound,measurement,setting,value
Cc1ccc2nc(SCc3nc(-c4ccc(Cl)cc4)no3)[nH]c2c1,AC50,[1],"31.6 µM [falling, single point]"
CC(=O)Nc1ccccc1-c1nc2ccccc2n(CC(=O)Nc2cccc(C)c2C)c1=O,AC50,[1],"39.8 µM [falling, single point]"
CCOC(=O)c1cc(-c2ccccc2)n(CCC(=O)Nc2ccccc2CC)c1C,AC50,[1],"39.8 µM [rising, partial curve]"
Cc1cc(C)cc(N2C(=O)CSC23C(=O)N(Cc2c(F)cccc2Cl)c2ccccc23)c1 (centres undefined),AC50,[1],"7.94 µM [falling, partial curve]"
